Reference: PubChem BioAssay AID493014 (National Center for Advancing Translational Sciences (NCATS), 2011)
The list shows a part of the results. Further columns of the screen follow, without active or inactive calls. The list favours compounds with an active or inconclusive main result. The note in brackets gives the kind of curve behind each potency; many fits are weak.

Assay: qHTS Assay to Find Inhibitors of Chronic Active B-Cell Receptor Signaling
Conditions: ABC-DLBCL IkBa-CBG/CBR reporter, luminescence ratio (green luciferase fused to IkBa over red control in TMD8 lymphoma cells), 4 h
Outline: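 Doxycycline induced both beetle luciferases in TMD8 lymphoma cells; IKK-driven degradation limits the IkappaBalpha-fused green signal, while red luminescence normalises for cell number and nonspecific effects. Compounds tested up to 46 uM, 4 hrs.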

[1] = measured here: CBR red luminescence, cell number
[2] = measured here: IkBa-CBG green luminescence

Cc1ccccc1C(=O)NNS(=O)(=O)c1cccc([N+](=O)[O-])c1
AC50 [1]: 15.8 µM [falling, partial curve, poor fit]

Cc1cccc(Nc2ncnc3onc(-c4ccc(F)cc4)c23)c1C
AC50 [1]: 35.5 µM [rising, single point]

S=C(NCCc1c[nH]c2ccccc12)NC1CCCC1
AC50 [1]: 35.5 µM [falling, single point]

CC(C)CC(N=Cc1c(O)c2ccccc2oc1=O)C(=O)O (centres undefined)
AC50 [1]: 3.55 µM [falling, full curve]

O=C1c2ccccc2N2C(=O)c3ccccc3C2N1O (centres undefined)
AC50 [1]: 11.2 µM [falling, partial curve, poor fit]

CCCCN(C(=O)Cc1coc2cc(C)c(C)cc12)c1c(N)n(Cc2ccccc2)c(=O)[nH]c1=O
AC50 [1]: 0.58 µM [rising, full curve]

O=S(=O)(c1ccc(Br)cc1)N1CCN(c2ccc3nnc(-c4ccccc4)n3n2)CC1
AC50 [1]: 29.1 µM [rising, single point]

Cc1cc(C(=O)NC(=S)Nc2cccc(NC(=O)C(C)C)c2)ccc1[N+](=O)[O-]
AC50 [1]: 1.46 µM [rising, full curve, poor fit]

C=CCSc1nc2c(c(C3CC=CCC3)c1C#N)CCC2 (centres undefined)
AC50 [1]: 16.4 µM [rising, partial curve]

CC(C)n1cc(C(=O)N2CCCC(N3CCN(c4cccc(Cl)c4)CC3)C2)cn1 (centres undefined)
AC50 [1]: 3.16 µM [falling, partial curve, poor fit]

C/C(=C\c1ccccc1)CN1CCN(Cc2ccc(C)o2)C(CCO)C1 (centres undefined)
AC50 [1]: 35.5 µM [rising, single point]

O=C(C1CCCN(c2ncnc3c2nc2n3CCCCC2)C1)N1CCN(c2ccccc2F)CC1 (centres undefined)
AC50 [1]: 35.5 µM [falling, single point]

O=C(CN1CCOCC1)Nc1ccccc1C(=O)Nc1ccccc1
AC50 [1]: 25.1 µM [rising, single point]

COc1ccccc1C(=O)NCC(=O)NC1CCCc2ccccc21 (centres undefined)
AC50 [1]: 10 µM [falling, partial curve, poor fit]

CN(c1ccc(C(=O)N2CCN(Cc3ccc4c(c3)OCO4)CC2)cc1)S(=O)(=O)c1ccccc1
AC50 [1]: 29.1 µM [falling, single point]

CCC(CO)Nc1nc2ccc(Cl)cc2c2ccccc12 (centres undefined)
AC50 [1]: 25.1 µM [falling, single point]

O=C(Cn1cnc([N+](=O)[O-])c1)Nc1ccc(F)c(Cl)c1
AC50 [1]: 2 µM [falling, full curve]

COC(=O)c1ccc(NC(=O)c2cccc(C)c2)cc1
AC50 [1]: 15.8 µM [falling, partial curve, poor fit]

O=[N+]([O-])c1cc(F)c(N2CCCCC2)cc1N1CCOCC1
AC50 [1]: 12.6 µM [rising, partial curve, poor fit]

COc1cc(C(F)(F)F)ccc1C(=O)NCCc1ccco1
AC50 [1]: 7.08 µM [rising, full curve, poor fit]

CC(C)c1nc(N2CCN(C(=O)c3ccco3)CC2)c(C#N)c2c1COC(C)(C)C2
AC50 [1]: 2.82 µM [falling, full curve, poor fit]

CCOc1ccc(Oc2c(/C=N/NC(=O)COc3ccccc3OC)c(C)nn2-c2ccccc2)cc1
AC50 [1]: 0.92 µM [rising, partial curve]

Cc1cc(/C=N/n2cnnc2)c(O)c([N+](=O)[O-])c1
AC50 [1]: 29.1 µM [rising, single point]

O=C(Nc1cccc(NC(=O)c2cccs2)c1)c1ccc2c(c1)OCO2
AC50 [1]: 6.31 µM [falling, partial curve, poor fit]

CCCCNC(=O)C(C#N)c1nc2ccccc2nc1N1CCCC1 (centres undefined)
AC50 [1]: 6.51 µM [falling, partial curve, poor fit]

CS(=O)(=O)c1ccc2nc(NC(=O)CCC(=O)c3cccs3)sc2c1
AC50 [1]: 6.51 µM [rising, partial curve, poor fit]

CC1(C)Cc2ccccc2C(N/N=C/c2ccc(Cl)cc2)=N1
AC50 [1]: 0.461 µM [rising, full curve, poor fit]

COc1ccc(NC(=O)CSc2nnc(-c3ccco3)n2N)cc1Cl
AC50 [1]: 0.631 µM [falling, full curve, poor fit]

COc1cc2nc(COc3ccc(C#N)cc3)n(CC#N)c(=O)c2cc1OC
AC50 [1]: 15.8 µM [falling, partial curve, poor fit]

Cc1ccc2nc(-c3ccccc3)c(NC(=O)c3ccco3)n2c1
AC50 [1]: 9.2 µM [falling, partial curve]

CC(=O)Nc1ccc(C(=O)OCC(=O)Nc2ccccc2F)cc1
AC50 [1]: 35.5 µM [falling, single point]

CCCC(=O)Nc1nc2ccc(OC)cc2s1
AC50 [1]: 1.03 µM [falling, full curve, poor fit]

CCN(CC)S(=O)(=O)c1ccc(N2CCOCC2)c(NC(=O)COc2ccc(OC)cc2)c1
AC50 [1]: 25.9 µM [rising, single point]

CCc1nnc(NC(=O)Cc2ccc(Br)cc2)s1
AC50 [1]: 3.16 µM [rising, partial curve, poor fit]

CC1CCC/C(=C\Nc2ccc(C(=O)O)cc2)C1=O (centres undefined)
AC50 [1]: 0.398 µM [falling, full curve, poor fit]

O=[N+]([O-])c1ccc(O)c(C=Nc2ccc3oc(Cc4ccc(Cl)cc4)nc3c2)c1
AC50 [1]: 1.78 µM [falling, full curve, poor fit]

COc1ccccc1-n1cnnc1SCC(=O)c1ccc[nH]1
AC50 [1]: 4.11 µM [falling, single point]
AC50 [2]: 6.51 µM [rising, partial curve, poor fit]

Cc1cc(Cl)n2nc(C)c(-c3ccc(Cl)cc3)c2n1
AC50 [1]: 12.6 µM [falling, partial curve, poor fit]

COc1cccc(CN(C(=O)COc2ccc(C)cc2)C2CCS(=O)(=O)C2)c1 (centres undefined)
AC50 [1]: 10 µM [falling, partial curve, poor fit]

COc1ccc(CCNc2nc(-c3ccc(F)cc3)c(CC(=O)O)s2)cc1OC
AC50 [1]: 11.2 µM [falling, partial curve, poor fit]

COc1ccc(F)cc1C(=O)C1CCCN(Cc2cn(C)c3ccccc23)C1 (centres undefined)
AC50 [1]: 28.2 µM [falling, single point]

COC(=O)c1cccc(COC(=O)CNC(=O)c2ccco2)c1
AC50 [1]: 12.6 µM [rising, partial curve, poor fit]

CCCOc1ccc(N2C(=O)CC(N(Cc3ccc(S(N)(=O)=O)cc3)C(=O)CC)C2=O)cc1 (centres undefined)
AC50 [1]: 1.16 µM [falling, full curve, poor fit]

COc1ccc(NC(=O)c2ccc(Cl)nc2)cc1S(=O)(=O)N1CCCCC1
AC50 [1]: 12.6 µM [falling, partial curve]
AC50 [2]: 8.91 µM [rising, partial curve, poor fit]

OCCN1CCN(CC/C=C2/c3ccccc3Sc3ccc(C(F)(F)F)cc32)CC1
AC50 [1]: 29.1 µM [falling, single point]

COc1ccc([C@]23Cc4ccccc4C(O2)c2c(cc(C)n(Cc4ccccc4)c2=O)O3)cc1
AC50 [1]: 5.62 µM [rising, single point]

COc1cc(OC)cc(-n2nnnc2SCC(=O)Nc2nc3c(s2)CCCC3)c1
AC50 [1]: 2.91 µM [rising, single point]

COc1ccccc1-c1noc(CCC(=O)Nc2cc(C(F)(F)F)ccc2Cl)n1
AC50 [1]: 23.1 µM [rising, partial curve, poor fit]

O=C(NC(NNc1ccc([N+](=O)[O-])cc1)(C(F)(F)F)C(F)(F)F)c1ccc(F)cc1
AC50 [1]: 14.6 µM [falling, single point]

CC1CCCCC12NC(=O)N(CC(=O)NC(=O)NCc1ccco1)C2=O (centres undefined)
AC50 [1]: 0.00461 µM [falling, full curve, poor fit]

O=C(Nc1ccccc1)C1=C[C@@H](C2CCCCC2)C[C@@H](OCCCCO)O1
AC50 [1]: 11.2 µM [falling, partial curve, poor fit]

COc1ccccc1CNC(=O)CSc1ccc(-c2cccs2)nn1
AC50 [1]: 35.5 µM [falling, single point]

O=C(CCC(=O)N1CCN(Cc2ccc(F)cc2)CC1)Nc1nnc(C2CCCCC2)s1
AC50 [1]: 11.2 µM [rising, partial curve, poor fit]

COc1cccc(-c2csc(N3CCN(C(=O)Nc4ccccc4OC)CC3)n2)c1
AC50 [1]: 29.1 µM [rising, partial curve, poor fit]

COC(=O)/C(=C\c1ccc(O)cc1)c1nc2ccccc2[nH]1
AC50 [1]: 8.91 µM [falling, partial curve, poor fit]

CCCn1nc(C(=O)Nc2cccc(C(=O)OC)c2)c2ccccc2c1=O
AC50 [1]: 10 µM [falling, partial curve, poor fit]

Cc1ccc(S(=O)(=O)N[C@@H](CC(C)C)C(=O)N2CCC(C(=O)N[C@H](C(=O)O)C(C)C)CC2)cc1
AC50 [1]: 15.8 µM [falling, single point]

Cc1nc(/C(N)=N/OC(=O)c2ccccc2Cl)c(C(F)(F)F)o1
AC50 [1]: 11.2 µM [falling, partial curve, poor fit]

Cc1cccc(Nc2ncnc3nc[nH]c23)c1
AC50 [1]: 6.51 µM [falling, partial curve]

O=C(/C=C/c1cccc([N+](=O)[O-])c1)Nc1ccc(NC(=O)c2cccs2)cc1
AC50 [1]: 0.103 µM [falling, full curve, poor fit]

Cc1ccc(S(=O)(=O)NC2CCOC(C)(C)C2)cc1 (centres undefined)
AC50 [1]: 23.1 µM [falling, partial curve]
AC50 [2]: 18.4 µM [rising, partial curve, poor fit]
